# Assay results

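Wild-type GFP-tagged E. coli compared with a G2058-humanized RFP-tagged strain; fluorescence read after 24 hours of exposure. The value is the change in activity at the top tested concentration; more negative means stronger inhibition. Active means the normal-ribosome signal drops at least twice as much as the mutant signal without a large loss of growth; inconclusive means no clear call.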

All entries here are filed as inconclusive. Only part of the assay is shown, chiefly results filed as inconclusive.

| structure | setting | activity change |
|---|---|---|
| `CN(CC(=O)Nc1cccc(F)c1)C(=O)Cn1c(=O)oc2ccccc21` | at 50 µM (top of the series) | 4.606 |
| `O=C(Nc1cccc(F)c1)N1[C@@H]2CNC[C@H]1C2c1ccc(-c2ccncc2)cc1` (stereo partly drawn) | at 50 µM (top of the series) | -17.48 |
| `CCCn1nnnc1NCc1ccccc1OCc1cccs1` | at 50 µM (top of the series) | -24.84 |
| `COc1ccc(S(=O)(=O)N(C)C)cc1NC(=O)c1ccc2c(c1)NC(=O)C(C)S2` (stereo not drawn) | at 50 µM (top of the series) | -14.31 |
| `O=C(Cc1cccnc1)N1CC(=O)N2[C@H](C1)[C@@H](c1ccc(C3=CCCCC3)cc1)[C@@H]2CO` | at 50 µM (top of the series) | 0.87 |
| `CN1CCN(C(=O)C[C@@H]2CC[C@H]3[C@@H](COC[C@H](O)CN3C(=O)Nc3ccc(Cl)cc3)O2)CC1` | at 50 µM (top of the series) | -25.62 |
| `CC1=CC(C)(C)N(C(=O)CSc2nnc(C)s2)c2ccc(C)cc21` | at 50 µM (top of the series) | 12.05 |
| `C=C(C)Cn1c(SCC(=O)O)nc2c1c(=O)[nH]c(=O)n2C` | at 50 µM (top of the series) | -6.038 |
| `COC(=O)c1sccc1NC(=O)Cn1nnc(-c2ccccc2C)n1` | at 50 µM (top of the series) | -30.95 |
| `Fc1ccc(-n2cc(CNCCc3cccnc3)c(-c3ccccc3Cl)n2)cc1` | at 50 µM (top of the series) | -25.54 |
| `Cc1ccccc1NC(=O)c1ccccc1N(C)S(=O)(=O)c1ccccc1` | at 50 µM (top of the series) | -14.31 |
| `O=S(=O)(Nc1cccc(-c2ccc(N3CCCCCC3)nn2)c1)c1ccc(F)cc1` | at 50 µM (top of the series) | -43.83 |
| `CCn1nnc(NC(=O)c2ccc([N+](=O)[O-])o2)n1` | at 50 µM (top of the series) | 6.639 |
| `CC(=O)Nc1cccc(-c2ccnc3c2CC(C(=O)Nc2ccc4c(c2)OCO4)O3)c1` (stereo not drawn) | at 50 µM (top of the series) | -31.26 |
| `C[C@H]1CCCCO[C@H](CN(C)C)[C@@H](C)CN([C@@H](C)CO)C(=O)c2cc(NC(=O)Nc3cccc4ccccc34)ccc2O1` | at 50 µM (top of the series) | 23.49 |
| `O=S(=O)(Cc1ccccc1)N1CCCCN2[C@@H](CO)[C@@H](c3ccc(-c4cccnc4)cc3)[C@@H]2C1` | at 50 µM (top of the series) | -2.311 |
| `O=[N+]([O-])c1ccc(Cl)cc1NCc1cccnc1` | at 50 µM (top of the series) | -17.52 |
| `CC(C)OC(=O)C[N+](C)(C)CCN1C(=O)C2C(c3ccccc3)C=CC(c3ccccc3)C2C1=O` (stereo not drawn) | at 50 µM (top of the series) | -1.616 |
| `C=CCn1c(SCC(=O)N2CCCC2=O)nc2sc(CC)cc2c1=O` | at 50 µM (top of the series) | 6.107 |
| `COC(=O)c1cc2c(c3c4cc(OC)ccc4n(C(=O)c4ccccc4)c13)C(=O)N(Cc1ccco1)C2` | at 50 µM (top of the series) | 0.314 |
| `C[C@H]1CN([C@@H](C)CO)C(=O)c2c(c3ccccc3n2C)-c2ccccc2CO[C@@H]1CN(C)Cc1ccncc1` | at 50 µM (top of the series) | -46.83 |
| `O=C(CN1CCC(n2nnc3cc(F)ccc32)CC1)N1CCc2ccccc2C1` | at 50 µM (top of the series) | 4.748 |
| `CC(C)c1cc(C(N)=O)c(NC(=O)C2CCC2)s1` | at 50 µM (top of the series) | -25.79 |
| `O=C(Nc1cccc(O)c1)c1cc(-c2ccccc2Cl)on1` | at 50 µM (top of the series) | -28.59 |
| `COC(=O)c1c(C)oc(C)c1S(=O)(=O)NC(c1ccccc1)c1ccccc1` | at 50 µM (top of the series) | -44.36 |
| `CC1=Nc2cc(C(=O)NCC3CCCO3)ccc2Sc2ccc(Br)cc21` (stereo not drawn) | at 50 µM (top of the series) | -25.38 |
| `CCOC(=O)c1cnc2c(cnn2C)c1NCc1ccc(OC)cc1` | at 50 µM (top of the series) | -12.17 |
| `O=C(Cc1coc2ccc3ccccc3c12)NCc1ccccc1` | at 50 µM (top of the series) | -27.28 |
| `COc1ccc(CCCc2nc3ccccc3[nH]2)cc1` | at 50 µM (top of the series) | -28.79 |
| `Cc1[nH]nc2c1C(c1ccc(F)cc1)N(Cc1ccccc1)C2=O` (stereo not drawn) | at 50 µM (top of the series) | -26.99 |
| `Cc1cccc(NC(=O)COc2cccc3c2CCNC3=O)c1` | at 50 µM (top of the series) | 26.11 |
| `CC(=O)c1cccc(NC(=O)C2CCCN(S(C)(=O)=O)C2)c1` (stereo not drawn) | at 50 µM (top of the series) | 32.02 |
| `CN(c1ccc(C(=O)NCc2cccs2)cc1)S(=O)(=O)c1ccccc1` | at 50 µM (top of the series) | -6.133 |
| `Fc1ccc(CSc2nnc(-c3ccco3)o2)cc1` | at 50 µM (top of the series) | 0.093 |
| `CC(=O)c1ccc(NC(=O)c2ccc([N+](=O)[O-])o2)cc1` | at 50 µM (top of the series) | -34.53 |
| `Cn1c(CC2C(=O)Nc3ccc(Br)cc32)nc2ccccc2c1=O` (stereo not drawn) | at 50 µM (top of the series) | -7.286 |
| `Cc1cccc(C(=O)NCC(=O)N2CC=C(c3ccccc3)CC2)c1` | at 50 µM (top of the series) | -11.54 |
| `CN1c2ccc(C#Cc3cccnc3)cc2[C@@H]2[C@@H](CCN2C(=O)c2cccc(F)c2)[C@H]1CO` | at 50 µM (top of the series) | -15.15 |
| `CSc1nc(SCCN(C)C)c2c3c(sc2n1)COC(C)(C)C3` | at 50 µM (top of the series) | 2.357 |
| `O=C(Nc1nc(-c2ccc3ccccc3c2)cs1)C1CCN(S(=O)(=O)c2cccs2)CC1` | at 50 µM (top of the series) | 9.487 |
| `Cc1ccc(S(=O)(=O)Nc2ccc3c(c2)C(=O)N([C@H](C)CO)C[C@@H](C)[C@H](CN(C)C(=O)c2ccccc2)OCCCC[C@@H](C)O3)cc1` | at 50 µM (top of the series) | 14.54 |
| `CC(=O)Nc1cccc(NC(=O)c2c(-c3c(Cl)cccc3Cl)noc2C)c1` | at 50 µM (top of the series) | -17.39 |
| `CCOC(=O)C12C(=O)OCC1C2c1ccccc1` (stereo not drawn) | at 50 µM (top of the series) | 12.7 |
| `O=C1CCCN1c1ccc([N+](=O)[O-])cc1` | at 50 µM (top of the series) | -10.9 |
| `COc1cccc(NC(=O)C(c2ccccc2)N2CCN(c3ccccn3)CC2)c1` (stereo not drawn) | at 50 µM (top of the series) | -12.76 |
| `CC(=O)Nc1ccc2nc3ccccc3nc2c1` | at 50 µM (top of the series) | -35.02 |

The last 2 entries again:

structure,setting,activity change
COc1cccc(NC(=O)C(c2ccccc2)N2CCN(c3ccccn3)CC2)c1 (stereo not drawn),at 50 µM (top of the series),-12.76
CC(=O)Nc1ccc2nc3ccccc3nc2c1,at 50 µM (top of the series),-35.02

The results are deposited in PubChem (AID1035470; Broad Institute, 2014).